Laboratory results published in publication doi:10.1101/2022.02.01.475276.
For at least one entry, the source does not settle the construct or the ends of the probe. For part of these data: A weaker result is weaker than the reference pair of the same experiment. At least one verdict was read from the data and is not stated in words by the source.

Assays:
[1] = tested on: SIM1 + ARNT2 (SIM1 partner); assay: EMSA
[2] = tested on: NPAS4 + ARNT2 (NPAS4 partner); assay: EMSA

| Sequence | binding result [1] | binding result [2] |
| --- | --- | --- |
| AATGGGTACGTGCCAAATTGAA (double strand) [H2RE] | binds more weakly | – |
| AGGCTGCGTACGTGCGGGTCGT (double strand) [HRE (C/C)] | binds | – |
| TGATTCTGGTAATTCGTGCACTAGAGTGTC (double strand) [BDNF IV NPAS4 response element (C/C)] | – | binds |
